Reference: patent publication US20070293451A1, “Regulation ao ApoB by Hsp110 proteins and related compositions and methods” (University of Pittsburgh, priority 2006, published 2007)
These are yes or no findings as the source states them, for the method shown. Some binding calls cover weakened binding; strength is not graded here. Tags and fused reporters may be left off the sequences shown.

Molecular target: T1, peptide binding domain of Sse1p (Saccharomyces cerevisiae (yeast)) (UniProt P32589)
T1 sequence: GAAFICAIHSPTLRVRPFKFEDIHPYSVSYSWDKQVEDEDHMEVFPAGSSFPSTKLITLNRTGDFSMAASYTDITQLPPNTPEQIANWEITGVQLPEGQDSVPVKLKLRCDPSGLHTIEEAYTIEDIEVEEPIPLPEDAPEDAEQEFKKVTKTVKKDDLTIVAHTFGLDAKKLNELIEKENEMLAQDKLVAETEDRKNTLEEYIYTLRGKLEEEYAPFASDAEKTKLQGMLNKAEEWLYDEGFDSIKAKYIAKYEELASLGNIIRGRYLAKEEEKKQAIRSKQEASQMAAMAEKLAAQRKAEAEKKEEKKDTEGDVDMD
Test: fluorescence anisotropy

B1: 6-carboxyfluorescein-aminohexanoic acid-N-terminal-linked polypeptide … (derived from firefly luciferase) (peptide)
peptide: LICGFRVVLMYRF
modifications: 6-carboxyfluorescein-aminohexanoic acid linked to the N-terminus
With B1 the binding was “binds”.
